# Results published in patent US20160122312A1, “ANTI-VIRAL COMPOUNDS, PHARMACEUTICAL COMPOSITIONS AND METHODS OF USE THEREOF” (KINETA, INC., priority 2013, published 2016).
# At least one structure is not confirmed: it was looked up by name or label, or the drawing left a doubt.
# What was measured:
# DNV type 2 strain = test: DNV focus-forming assay in Huh7 cells; assay type: cell-based, Dengue virus; details: FIG. 4B
# [1] = system: IRF-3 dependent signaling; test: IRF-3 dependent gene expression by RT-qPCR; assay type: cell-based, human; details: 293 cells, FIG. 6
# hCMV AD169 strain = test: hCMV focus-forming assay in human foreskin fibroblasts; assay type: cell-based, human cytomegalovirus; details: FIGS. 5A, 5B
smiles,measurement,setting,value
CC(C)(C)c1ccc(-c2coc3cc(OS(C)(=O)=O)ccc3c2=O)cc1 [KIN269],"viral infection of Huh7 cells (decrease in foci, dose dependence)",DNV type 2 strain,dose-dependent decreases in viral infection
same,IRF-3 dependent / antiviral response gene expression,[1],induced
same,"hCMV as measured by foci (FFU/mL), dose dependence",hCMV AD169 strain,dose-dependent decreases in hCMV
